The list does not hold the whole screen: it is rich in T/C values a quarter to a half above the control, in often repeated tests (any T/C) and in doses without a T/C. Further doses and runs are listed elsewhere. T/C gives the treated animals as a percentage of the vehicle group. Some entries give survivors of the animals treated and no T/C: the source holds a T/C of zero for them, seemingly a mark for toxic or unscored doses. Some doses without a T/C left all or most animals alive at the check, yet need not have been tolerated: survival well below the control is almost never listed, so the zero probably covers shortened survival too. Counts of survivors are from the toxicity check (mostly the fifth day) where no day follows; animals may have died later. Schedule codes are those of the source, read here as Q, the interval in days (D) or hours (H), X, the number of doses. Some schedules carry Z or #; the key to these is not given. For survival time, this PubChem deposit counts one and a half times the control or more as active, and values a quarter to a half above the control carry no call in these data; other NCI protocols may use other cut-offs.
Test system: L1210 leukemia ip in BDF1 mice, survival T/C
Assay: NCI In Vivo Anticancer Drug Screen. Data for tumor model L1210 Leukemia (intraperitoneal) in B6D2F1 (BDF1) mice
Settings: T/C endpoint: mean survival time, higher T/C = longer survival
[1] = dose: 400.0 mg/kg/injection, schedule: Q01DX001 (ip), vehicle: saline
[2] = dose: 200.0 mg/kg/injection, schedule: Q04DX003 (ip), vehicle: Klucel (hydroxypropylcellulose) (HPC)
[3] = dose: 400.0 mg/kg/injection, schedule: Q04DX003 (ip), vehicle: Klucel (hydroxypropylcellulose) (HPC)

SMILES: Nc1nc(N)c(N)c(SCC(=O)C(=O)O)n1
- survivor count (dose: 400.0 mg/kg/injection, schedule: Q01DX001 (ip), vehicle: saline with Tween-80): 3 of 6

SMILES: CCCCC(CCCC)c1cc[n+](CC(=O)c2ccccc2)cc1
- survivor count (dose: 25.0 mg/kg/injection, schedule: Q01DX001 (ip), vehicle: saline): 6 of 6
- survivor count (dose: 100.0 mg/kg/injection, schedule: Q01DX001 (ip), vehicle: saline): 0 of 6
- survivor count (dose: 200.0 mg/kg/injection, schedule: Q01DX001 (ip), vehicle: saline): 0 of 6
- survivor count [1]: 0 of 6

SMILES: CCC(=N\N=C(N)N)/C(C)=N\N=C(N)N
- T/C (dose: 60.0 mg/kg/injection, schedule: Q01DX Z (ip), vehicle: saline): 125 % of control
- survivor count (dose: 240.0 mg/kg/injection, schedule: Q01DX Z (ip), vehicle: saline): 0 of 6
- survivor count (dose: 480.0 mg/kg/injection, schedule: Q01DX Z (ip), vehicle: saline): 0 of 6

SMILES: CC1(C)CN(Cc2ccccc2)C(C)(C)CN1
- survivor count (dose: 50.0 mg/kg/injection, schedule: Q04DX003 (ip), vehicle: saline with Tween-80): 1 of 6
- survivor count (dose: 100.0 mg/kg/injection, schedule: Q04DX003 (ip), vehicle: saline with Tween-80): 0 of 6
- survivor count (dose: 200.0 mg/kg/injection, schedule: Q04DX003 (ip), vehicle: saline with Tween-80): 0 of 6
- survivor count (dose: 400.0 mg/kg/injection, schedule: Q04DX003 (ip), vehicle: saline with Tween-80): 0 of 6

SMILES: CCOC(=O)CCN(Cc1ccco1)C(=S)Nc1ccccc1
- survivor count (dose: 100.0 mg/kg/injection, schedule: Q01DX Z (ip), vehicle: methylcellulose (MC)): 6 of 6

SMILES: CCN(CC)CCN(CCO)Cc1ccccc1
- survivor count (dose: 200.0 mg/kg/injection, schedule: Q01DX009 (ip), vehicle: Klucel (hydroxypropylcellulose) (HPC)): 0 of 6
- survivor count [2]: 0 of 6
- survivor count [3]: 0 of 6

SMILES: CCCCCCCCCCCCSc1ccc2ccccc2c1
- survivor count (dose: 400.0 mg/kg/injection, schedule: Q01DX001 (ip), vehicle: Klucel (hydroxypropylcellulose) (HPC)): 6 of 6

SMILES: CCOC(=O)c1cc([N+](=O)[O-])cc2c1-c1c(cc([N+](=O)[O-])cc1[N+](=O)[O-])C2=O
- survivor count [2]: 2 of 6
- survivor count [3]: 1 of 6

SMILES: O=c1[nH]c(=O)c2cccnc2[nH]1
- survivor count (dose: 200.0 mg/kg/injection, schedule: Q01DX009 (ip), vehicle: saline): 2 of 6
- survivor count [1]: 2 of 6

SMILES: Cc1c(O)cc(O)cc1O
- survivor count [1]: 2 of 6

SMILES: CCOC(=O)NC(S(=O)(=O)O)S(=O)(=O)O.[Tl]
- survivor count (dose: 50.0 mg/kg/injection, schedule: Q01DX001 (ip), vehicle: saline with Tween-80): 1 of 3
- survivor count (dose: 100.0 mg/kg/injection, schedule: Q01DX001 (ip), vehicle: saline with Tween-80): 0 of 3

SMILES: Cc1cc(NCC(=O)NN)ccc1Cl
- T/C (dose: 200.0 mg/kg/injection, schedule: Q04DX002 (ip), vehicle: Klucel (hydroxypropylcellulose) (HPC)): 146 % of control
- survivor count (dose: 400.0 mg/kg/injection, schedule: Q04DX002 (ip), vehicle: Klucel (hydroxypropylcellulose) (HPC)): 0 of 3

SMILES: NC(=O)C(O)(C(F)(F)F)C(F)(F)F
- survivor count (dose: 20.0 mg/kg/injection, schedule: Q04DX003 (ip), vehicle: saline): 6 of 6
- survivor count (dose: 40.0 mg/kg/injection, schedule: Q01DX001 (ip), vehicle: saline): 0 of 6
- survivor count (dose: 75.0 mg/kg/injection, schedule: Q01DX001 (ip), vehicle: saline): 0 of 6
- survivor count (dose: 150.0 mg/kg/injection, schedule: Q01DX001 (ip), vehicle: saline): 0 of 6
- survivor count (dose: 300.0 mg/kg/injection, schedule: Q01DX001 (ip), vehicle: saline): 0 of 6

SMILES: C#CCn1c(=O)c2c(ncn2C)n(C)c1=O
- survivor count (dose: 12.5 mg/kg/injection, schedule: Q04DX003 (ip), vehicle: saline): 1 of 3
- survivor count (dose: 25.0 mg/kg/injection, schedule: Q04DX003 (ip), vehicle: saline): 0 of 3
- survivor count (dose: 100.0 mg/kg/injection, schedule: Q04DX003 (ip), vehicle: saline): 2 of 3
- survivor count (dose: 200.0 mg/kg/injection, schedule: Q04DX003 (ip), vehicle: saline): 0 of 3
- survivor count (dose: 400.0 mg/kg/injection, schedule: Q04DX003 (ip), vehicle: saline): 0 of 3
